# Laboratory results: PubChem BioAssay AID652243 (Drosophila RNAi Screening Center, 2013)
# Aim: 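Fly genes required for human androgen receptor driven transcription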 (primary screen)
# System: Drosophila S2R+ cells
# Knock-down reagent: long dsRNA against Drosophila genes
# Timing: 72 h (48 h, then 24 h hormone)
# Treatment: synthetic androgen R1881 at 10 nM for 24 h
# Measured: 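Per-well raw luminescence of the androgen-driven firefly reporter and of the Renilla control, two replicates each, without normalisation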
# Direction: firefly reporter light: higher = more light from androgen-responsive reporter; Renilla control light: higher = more constitutive control signal (cell number, transfection)
# Call rule: 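Across duplicate plates, a knock-down whose log firefly/Renilla ratio shifted a set fold down or up from the GFP/LacZ control mean was a hit; the downward cut appears as both 1.5 and 3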
# Meaning of the calls: active = hit: reporter lowered or raised; inactive = no hit
# In all, the deposit lists about 24,000 reagents; this is an unselected part of those that have a named target and a result. Over the whole deposit, 246 (1%) were called active. 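Plates not normalised; calls are printed but the firefly/Renilla ratio behind them is not deposited; fold cut for lowering reported inconsistently.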 The raw values are shown without normalisation. A plus sign joins genes that one reagent is predicted to hit. No sequences are given here. Not stated in the record: the amount of reagent.
target,DRSC id,"firefly reporter light, replicate 1","firefly reporter light, replicate 2","Renilla control light, replicate 1","Renilla control light, replicate 2",outcome
CG4709,DRSC02772,1.23e6,1.19e6,1.81e6,2.29e6,inactive
jagn,DRSC12152,65383,83111,4.93e5,4.40e5,inactive
CG11664,DRSC18650,2.93e5,3.34e5,4.43e6,3.77e6,inactive
CG14691,DRSC14914,1.41e5,1.79e5,1.67e6,1.46e6,inactive
CG14691,DRSC27957,8.11e5,3.33e5,3.19e6,1.52e6,inactive
tra,DRSC11405,2.72e5,1.94e5,2.59e6,1.42e6,inactive
CG15547,DRSC15085,1.71e5,1.61e5,1.84e6,2.62e6,inactive
CG15547,DRSC29577,3.73e5,4.55e5,8.78e5,8.78e5,inactive
CG5412,DRSC15796,1.02e5,92701,6.50e5,7.18e5,inactive
CG5139,DRSC00681,1.12e5,1.60e5,1.10e6,1.70e6,inactive
CG5139,DRSC26541,2.22e5,2.47e5,5.18e5,6.61e5,inactive
CG43861,DRSC02170,1.41e5,1.62e5,1.42e6,1.34e6,inactive
CG43861,DRSC02308,1.03e5,1.80e5,1.01e6,1.21e6,inactive
CG18577,DRSC15352,1.21e5,1.56e5,1.73e6,1.69e6,inactive
CG11912,DRSC00332,8.39e5,8.21e5,2.58e6,1.63e6,inactive
CG32564,DRSC19933,4.05e5,4.89e5,3.22e6,2.69e6,inactive
CG32564,DRSC25202,7.28e5,1.04e6,7.75e5,8.58e5,inactive
CG42304 + Snup,DRSC08276,6.43e5,5.88e5,1.89e6,1.84e6,inactive
CG42304 + Snup,DRSC08277,26082,15546,4.96e5,4.09e5,active
CG42304 + Snup,DRSC22781,1.34e5,2.85e5,9.21e5,1.10e6,active
CG42304 + Snup,DRSC23772,1.20e6,1.29e6,7.66e5,9.35e5,inactive
CG42304 + Snup,DRSC39092,4.05e5,3.29e5,1.29e6,1.52e6,inactive
Suv3,DRSC12335,24426,25827,1.29e5,2.86e5,inactive
CG11155,DRSC17205,1.04e5,98680,7.59e5,7.31e5,inactive
CG11155,DRSC29324,4.31e5,4.06e5,8.75e5,8.75e5,inactive
Ipk2,DRSC00357,91109,89620,5.70e5,6.30e5,inactive
Ipk2,DRSC24511,5.08e5,5.78e5,5.15e5,5.20e5,inactive
ItgaPS5,DRSC04501,4.53e5,3.45e5,2.34e6,1.85e6,inactive
ItgaPS5,DRSC28842,5.31e5,5.26e5,1.36e6,1.41e6,inactive
CG6527,DRSC10659,2.39e5,2.30e5,2.66e6,2.44e6,inactive
STUB1,DRSC03282,2.06e5,3.02e5,1.32e6,2.00e6,inactive
PPP1R15,DRSC04422,2.34e5,1.10e5,2.50e5,1.38e5,inactive
PPP1R15,DRSC26013,42291,52465,98417,81650,inactive
CG17715,DRSC11950,1.29e5,76754,3.48e6,1.65e6,inactive
fd102C,DRSC17203,2.15e5,2.00e5,4.25e6,3.22e6,inactive
fd102C,DRSC26567,4.22e5,3.66e5,6.76e5,6.26e5,inactive
CG43106,DRSC04279,3.26e5,3.44e5,2.45e6,2.05e6,inactive
mthl3 + mthl4,DRSC25990,2.38e5,2.28e5,6.18e5,4.75e5,inactive
lncRNA:iab8,DRSC22252,8.64e5,1.03e6,2.86e5,3.00e5,inactive
lncRNA:iab8,DRSC28445,3.18e5,4.98e5,8.44e5,1.94e6,inactive
Atg18b,DRSC03108,7.65e5,5.57e5,2.11e6,2.06e6,inactive
Atg18b,DRSC28594,4.54e5,4.37e5,1.68e6,1.49e6,inactive
CG13245,DRSC02243,7.83e5,8.70e5,1.48e6,1.95e6,inactive
cmb,DRSC09790,2.97e5,2.90e5,3.26e6,2.61e6,inactive
cmb,DRSC25444,8.86e5,1.07e6,1.09e6,9.35e5,inactive
cmb,DRSC39052,3.09e5,3.32e5,1.30e6,1.49e6,inactive
Acbp1,DRSC03093,2.52e5,3.66e5,2.51e6,2.32e6,inactive
Acbp1,DRSC29718,5.82e5,6.56e5,1.72e6,1.68e6,inactive
CG8620,DRSC11020,1.22e5,1.65e5,1.70e6,2.00e6,inactive
CG8620,DRSC25632,7.08e5,5.94e5,7.78e5,1.27e6,inactive
nAChRbeta1,DRSC08097,1.51e5,1.39e5,2.39e5,3.24e5,inactive
nAChRbeta1,DRSC08728,1.10e6,8.51e5,2.14e6,1.94e6,inactive
CG13196,DRSC06321,2.57e5,1.83e5,1.33e6,1.27e6,inactive
CG15719,DRSC19685,6.16e5,5.80e5,2.62e6,3.11e6,inactive
ebd2,DRSC11682,90660,1.77e5,1.22e6,1.60e6,inactive
ebd2,DRSC28502,4.20e5,7.05e5,1.02e6,1.23e6,inactive
Jon99Fi,DRSC26496,2.96e5,3.17e5,5.86e5,6.51e5,inactive
Btk,DRSC02008,2.51e5,81016,2.21e6,1.18e6,inactive
Btk,DRSC02666,7.01e5,7.45e5,3.63e6,2.78e6,active
Btk,DRSC22427,4.88e5,9.26e5,8.10e5,1.80e6,inactive
Btk,DRSC37006,,,,,inactive

Entries listed so far with an active call, once more:
target,DRSC id,"firefly reporter light, replicate 1","firefly reporter light, replicate 2","Renilla control light, replicate 1","Renilla control light, replicate 2",outcome
CG42304 + Snup,DRSC08277,26082,15546,4.96e5,4.09e5,active
CG42304 + Snup,DRSC22781,1.34e5,2.85e5,9.21e5,1.10e6,active
Btk,DRSC02666,7.01e5,7.45e5,3.63e6,2.78e6,active
